No constants are given. Whether binding was seen depends on the method and setting. Some entries that bind do so weakly or less than the wild type.
Target: T1, recombinant human LRP6-Fc chimera (human, UniProt O75581 20-1370)
T1 construct: extracellular domain; also called ECD of human LRP6; not shown: Fc part of the chimera
T1 sequence (looked up): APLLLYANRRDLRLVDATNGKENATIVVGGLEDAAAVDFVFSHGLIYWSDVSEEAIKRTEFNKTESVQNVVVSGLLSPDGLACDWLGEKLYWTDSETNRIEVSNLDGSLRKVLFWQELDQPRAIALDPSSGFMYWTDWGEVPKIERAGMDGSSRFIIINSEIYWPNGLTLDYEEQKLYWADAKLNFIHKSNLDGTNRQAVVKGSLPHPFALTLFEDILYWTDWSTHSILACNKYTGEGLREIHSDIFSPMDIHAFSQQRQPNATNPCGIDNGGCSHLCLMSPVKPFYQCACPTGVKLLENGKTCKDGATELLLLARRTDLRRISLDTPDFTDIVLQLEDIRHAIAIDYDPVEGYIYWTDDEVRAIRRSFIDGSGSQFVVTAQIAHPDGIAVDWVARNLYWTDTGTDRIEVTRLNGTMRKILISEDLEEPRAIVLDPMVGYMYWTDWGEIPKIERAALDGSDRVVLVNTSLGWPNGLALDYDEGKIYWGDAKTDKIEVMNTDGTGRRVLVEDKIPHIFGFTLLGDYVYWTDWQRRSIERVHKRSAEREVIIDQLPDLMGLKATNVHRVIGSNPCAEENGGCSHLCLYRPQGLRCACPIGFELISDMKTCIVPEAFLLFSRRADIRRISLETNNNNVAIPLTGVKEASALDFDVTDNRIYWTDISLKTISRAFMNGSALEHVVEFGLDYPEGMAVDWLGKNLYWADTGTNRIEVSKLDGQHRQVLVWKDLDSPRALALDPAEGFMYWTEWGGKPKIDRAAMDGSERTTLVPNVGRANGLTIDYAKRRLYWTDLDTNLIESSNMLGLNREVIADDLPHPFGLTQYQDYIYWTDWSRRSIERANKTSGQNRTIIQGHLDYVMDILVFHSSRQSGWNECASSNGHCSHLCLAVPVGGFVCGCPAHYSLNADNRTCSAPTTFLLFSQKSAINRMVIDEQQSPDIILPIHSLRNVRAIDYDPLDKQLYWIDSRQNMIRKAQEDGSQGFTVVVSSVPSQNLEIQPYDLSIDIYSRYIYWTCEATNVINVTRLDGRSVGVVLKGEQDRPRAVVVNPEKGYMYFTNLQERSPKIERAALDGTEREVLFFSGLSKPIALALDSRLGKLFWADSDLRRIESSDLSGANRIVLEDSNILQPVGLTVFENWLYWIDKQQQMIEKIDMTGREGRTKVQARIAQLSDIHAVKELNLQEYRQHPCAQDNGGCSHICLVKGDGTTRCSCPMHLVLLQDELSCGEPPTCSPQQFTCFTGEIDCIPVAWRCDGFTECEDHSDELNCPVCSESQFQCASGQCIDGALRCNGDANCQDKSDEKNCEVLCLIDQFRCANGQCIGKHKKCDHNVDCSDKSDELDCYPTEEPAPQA
Assay: single-point ELISA, coated antigen, purified Fab or IgG1, anti-kappa-HRP

B1: LRP5-R3O_D3 (antibody, V domains shown)
VH: EVQLVESGGGLVQPGGSLRLSCAASGFNFSSSSIHWVRQAPGKGLEWVASISSSYGYTYYADSVKGRFTISADTSKNTAYLQMNSLRAEDTAVYYCARSWAMDYWGQGTLVTVSS
VL: DIQMTQSPSSLSASVGDRVTITCRASQSVSSAVAWYQQKPGKAPKLLIYSASSLYSGVPSRFSGSRSGTDFTLTISSLQPEDFATYYCQQYWAYYSPITFGQGTKVEIKR
notes: Fab-phage in the screen; also called LRP5-R30_D3; LRP5-R30D3
binding: binds

From patent US20230183336A1 (MODMAB THERAPEUTICS, published 2023)
